About 1,400 (4.5%) of roughly 31,000 sequences were called active.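 Rule for the calls: active = median seed-adjusted z-score above 1 or below -1; inactive = the rest.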 This is one part of the list.
Assay: Novel Modifiers of Survival Motor Neuron (SMN) Protein: Gene Identification via Genome-wide siRNA Screen;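 note: luminescence tracks full-length SMN protein made from the SMN2 reporter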
Conditions: HEK293T SMN2-luciferase reporter, siRNA knockdown, 72 h; actives lie on both sides
Outline: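 Each of three siRNAs per gene is reverse-transfected (1 pmol) into reporter HEK293T cells whose luciferase output tracks SMN protein level. After 72 h culture, ONE-Glo luminescence is control-normalized, log10-transformed and MAD-standardized; Common Seed Analysis deprioritizes seed-driven hits.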

Sequence	median seed-adjusted z-score
CGGAAACUCCUGUCGAUGATT against KIF26B	inactive: -0.153
GCGUGGAUCUCAACAGGAATT against CPA5	inactive: 0.141
GGGCGGUUGUCUACAGCAATT against GNAI2	inactive: 0
GCCCAUAGAGGGUUCAGAATT against CCNT1	inactive: -0.72
GCAUUGCUCUUGCACCAGATT against ZNF337	inactive: 0.104
GCAUGGAGGUCGUAUCUAUTT against TINAGL1	inactive: -0.059
GAAUGCCUAUCGGACACUATT against PLSCR4	inactive: -0.543
GACAGAUAAUGGGAAUUUUTT against RPIA	inactive: 0.0803
CCUUAUUGAGCAUCAAAGATT against ZNF189	inactive: 0.0743
CAGGUACAGUGAUUGCUCUTT against PCDHGA11	inactive: 0.0518
GAUCUUUGGUCACAAUACATT against ZNF28	inactive: 0.814
GCUCAAAUGCUAGUACUAUTT against FOXO1	inactive: 0.0591
GGUCUUGACUUCCACCAUATT against ZNF222	inactive: 0.13
GAUUUAUGCUAGCUCUAAATT against CFL2	inactive: -0.148
GAGCGACUCUUCGACGAGATT against SHOX	inactive: 0.316
GGCACGGUUUUGGUCGAAATT against FREM2	inactive: 0.143
CCACCAAUGUAGUCUAUCATT against PAPSS2	inactive: -0.201
CAUGUUGUUUUAUCGGAAATT against USP40	inactive: 0.00437
GCUGCUCUCUUUCUGUAUATT against PIGO	inactive: -0.218
GGAGAAUUACGUUUUAAUUTT against DOT1L	inactive: 0.164
CUGUCGUUAUUGGAUAACATT against MGA	inactive: 0.0136
GCUCUAUGUCUACAUCAAUTT against DAXX	inactive: 0.349
GACCAGUCCUUGUCUAUGATT against MED1	inactive: -0.855

Sequence	median seed-adjusted z-score
ACAGUGUGGUUCUUCAUUUTT against C1QL3	inactive: -0.276
UCUCAGAACCUACACCUGATT against LENG9	inactive: 0.607
GGAAAGAAGUGUCAGUCUUTT against PLG	inactive: 0.00473
UGGUACGGCUGAUCAACAATT against SIL1	inactive: 0.0292
GGAGGGACAAUGCUGCAUATT against SIGLEC6	inactive: 0.0176
CUACCUUACAGGGAUUAUATT against HMGCR	inactive: 0.00174
CCUAAUACCUUGCAAAGAATT against MPP6	inactive: -0.625
GGUUAAUUGAGAAUAGAAATT against ACTG1	inactive: -0.227
GACUUUGACUAUUCCGUCUTT against NLGN3	inactive: -0.0279
GUCCCGCAGAUUCAACAAATT against SSBP3	inactive: 0.00592
GGAAGAUUCAGUUAACAUUTT against NUDT3	inactive: 0.674
GAAGCUUGAUCUAAUUAUATT against ZNF182	inactive: 0
GAGUUAUGCAAGACAGUAUTT against MYSM1	inactive: -0.116
CCAGGAGAAUUGUUAGUGATT against GATA5	inactive: 0.15
GAUACGACAUGGAAUCAUUTT against ACTR3B	inactive: -0.301
GGAGACUAAUGAACUUCAATT against AK5	inactive: -0.0461
GGAGUUCAUCAAUAUGAAUTT against MLF1	inactive: 0.258
GACCUGCUCUGUAACCUCATT against NAALADL1	inactive: -0.0444
GGCACGAUGUCAUCGAAUUTT against CHD8	inactive: -0.158
GCAUGAAGGACGACAGCAATT against TNNC1	inactive: 0.442
GCUGACGAAUAUGACCCUATT against RBM17	inactive: 0
GACCUACAAAUGCAAGGAATT against ZNF80	inactive: 0.906
GCGACUACAUUGACCAGCUTT against MAPK11	inactive: 0.0663

Another view of some results above.

| Sequence | median seed-adjusted z-score |
| --- | --- |
| GGGCGGUUGUCUACAGCAATT against GNAI2 | inactive: 0 |
| ACAGUGUGGUUCUUCAUUUTT against C1QL3 | inactive: -0.276 |
| UGGUACGGCUGAUCAACAATT against SIL1 | inactive: 0.0292 |
| GGAGACUAAUGAACUUCAATT against AK5 | inactive: -0.0461 |
| GGCACGAUGUCAUCGAAUUTT against CHD8 | inactive: -0.158 |

Carrying on:

Sequence	median seed-adjusted z-score
GUCCGUUAACUAUCUGUUATT against GNAI3	inactive: 0.0656
GUGACUCCGUGUAUACUUATT against GCA	inactive: -0.162
GAAUGAUGUUAUAAAUCGATT against CENTB2	inactive: 0
GUCUGAGCGAGAGCAUUUATT against RAPSN	inactive: 0.143
GCCUCUUCACCACCCACAATT against EPOR	inactive: -0.084
GGAGCACAAGUUAAAGGUUTT against ELAC2	inactive: 0.016
GGCUGGAGGAAAUCGCUGATT against GUCA2A	inactive: 0.121
GGUUUGUAGCUGCAACUGUTT against SLC4A8	inactive: -0.474
CACCCUGCAGAAUCACUAUTT against PARN	inactive: -0.0061
GGGACGAGAUCGUUAGCUATT against VWF	inactive: 0.159
GCAUAGACGGACAUCUGAATT against ABLIM3	inactive: -0.29
CGGCCGUACUAUAAAUGGATT against ADH4	inactive: -0.0991
CAAGGUUUUUAGUCGAAGATT against ZNF816A	inactive: 0.39
GCCUGUCUGUGCACAUCGATT against SNTA1	inactive: 0.212
GAGCAUUUGUGCGCAAGUUTT against NRP2	inactive: 0.477
CCACUGCGUAUAUCACUUUTT against NPTN	inactive: 0.133
GAUAAACUGCGGCUAAAGATT against EIF3J	inactive: -0.411
UAAACUCGUUAGUCAAUUATT against SLC7A9	inactive: 0.194
GCAACAGCACAAUCCAGGATT against FUBP3	inactive: 0.108
GGAUGGGAACAACCCUGCATT against HMGN4	inactive: -0.0471
GGAUUUACGAGGAUGUAGATT against CALU	inactive: 0.123
CCACAUCCGAGAGAACAUUTT against MYBPH	inactive: 0.0513
GGAUUGGAACGAGUUACUATT against DARS	inactive: 0
